What all share (conditions): selectivity index
One data set relates to A549 (lung) cancer cells. As to the kind of experiment: MTT cytotoxicity assay, A549.
Data set [1] has as its system A2780 (ovarian) cancer cells. As to the kind of experiment: MTT cytotoxicity assay, A2780.
For data set [2], the system named is MDA-MB-231 (breast) cancer cells. As to the kind of experiment: MTT cytotoxicity assay, MDA-MB-231.
Data set [3] deals with A2780cis (ovarian cisplatin-resistant) cancer cells. As to the kind of experiment: MTT cytotoxicity assay, A2780cis.

With `Cc1cccc(Nc2ccccc2C2=[O+][Ru-4]34([O]2)([n+]2ccccc2-c2cccc[n+]23)[P+](c2ccccc2)(c2ccccc2)CCC[P+]4(c2ccccc2)c2ccccc2)c1C.F[P-](F)(F)(F)(F)F` [complex 2, [Ru(MFen)(bipy)(dppp)]PF6], the “SI1 = IC50(MRC-5)/IC50(A549)” value with A549 (lung) cancer cells is reported as 0.51. The “SI3 = IC50(MRC-5)/IC50(A2780)” value in data set [1] was 2.56. The “SI2 = IC50(MRC-5)/IC50(MDA-MB-231)” value in data set [2] is on record as 0.58. Further, in data set [3], the “SI4 = IC50(MRC-5)/IC50(A2780cis)” value is reported as 2.09.

`[Cl][Ru-4]12([Cl])([n+]3ccccc3-c3cccc[n+]31)[P+](c1ccccc1)(c1ccccc1)CCC[P+]2(c1ccccc1)c1ccccc1` [[RuCl2(bipy)(dppp)], cis-[RuCl2(bipy)(dppp)]]: in data set [1], the “SI3 = IC50(MRC-5)/IC50(A2780)” value turned out to be 1.46. In addition, the “SI2 = IC50(MRC-5)/IC50(MDA-MB-231)” value in data set [2] turned out to be 1.57. The “SI4 = IC50(MRC-5)/IC50(A2780cis)” value in data set [3] turned out to be 1.15.

On to `Cc1c(Cl)cccc1Nc1ccccc1C1=[O+][Ru-4]23([O]1)([n+]1ccccc1-c1cccc[n+]12)[P+](c1ccccc1)(c1ccccc1)CCC[P+]3(c1ccccc1)c1ccccc1.F[P-](F)(F)(F)(F)F` [complex 3, [Ru(TFen)(bipy)(dppp)]PF6], for which the “SI1 = IC50(MRC-5)/IC50(A549)” value in the data set with A549 (lung) cancer cells is on record as 0.41. Further, the “SI3 = IC50(MRC-5)/IC50(A2780)” value in data set [1] came to 1.59. Also, the “SI2 = IC50(MRC-5)/IC50(MDA-MB-231)” value in data set [2] is listed as 0.96. Further, the “SI4 = IC50(MRC-5)/IC50(A2780cis)” value in data set [3] stood at 1.33.

On to `FC(F)(F)c1cccc(Nc2ccccc2C2=[O+][Ru-4]34([O]2)([n+]2ccccc2-c2cccc[n+]23)[P+](c2ccccc2)(c2ccccc2)CCC[P+]4(c2ccccc2)c2ccccc2)c1.F[P-](F)(F)(F)(F)F` [complex 4, [Ru(FFen)(bipy)(dppp)]PF6], for which the “SI1 = IC50(MRC-5)/IC50(A549)” value with A549 (lung) cancer cells is 0.63. Moreover, the “SI3 = IC50(MRC-5)/IC50(A2780)” value in data set [1] was 2.03. Moreover, the “SI2 = IC50(MRC-5)/IC50(MDA-MB-231)” value in data set [2] is 1.86. Moreover, the “SI4 = IC50(MRC-5)/IC50(A2780cis)” value in data set [3] is recorded as 1.02.

On to `F[P-](F)(F)(F)(F)F.c1ccc(Nc2ccccc2C2=[O+][Ru-4]34([O]2)([n+]2ccccc2-c2cccc[n+]23)[P+](c2ccccc2)(c2ccccc2)CCC[P+]4(c2ccccc2)c2ccccc2)cc1` [complex 1, [Ru(Fen)(bipy)(dppp)]PF6], for which the “SI1 = IC50(MRC-5)/IC50(A549)” value with A549 (lung) cancer cells is listed as 0.62. Besides, in data set [1], the “SI3 = IC50(MRC-5)/IC50(A2780)” value amounted to 3.74. Further, in data set [2], the “SI2 = IC50(MRC-5)/IC50(MDA-MB-231)” value came to 0.86. Besides, in data set [3], the “SI4 = IC50(MRC-5)/IC50(A2780cis)” value is recorded as 2.57.

For the origin of these results see PMC11884657, “Ru(II)-Fenamic-Based Complexes as Promising Human Ovarian Antitumor Agents: DNA Interaction, Cellular Uptake, and Three-Dimensional Spheroid Models” (Inorganic Chemistry, 2025).
